The list shows a part of the results.
Tests used:
Test in all cases: glycan array binding signal (z-score within array); higher = stronger binding
Details in all cases: glycan notation: IUPAC condensed, linker removed
[1] = target: Gal(b1-3)GlcNAc(b1-6)GalNAc
Procedure, shortened: (§1)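 Columns mapping to the same glycan were averaged after glycan names were converted to IUPAC-condensed notation. The data come from 3228 arrays in the Consortium for Functional Glycomics database, limited to those with an available protein sequence. Binding is reported as a within-array Z-score averaged across arrays of one protein sequence and across linkers.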

[2] = target: Gal(b1-3)GlcNAc(b1-6)[Gal(b1-3)]GalNAc
Procedure, shortened: as §1

[3] = target: Gal(b1-3)GlcNAc6S
Procedure, shortened: as §1

[4] = target: Gal(b1-3)[Fuc(a1-4)]GlcNAc
Procedure, shortened: as §1

[5] = target: Gal(b1-3)[Fuc(a1-4)]GlcNAc(b1-2)Man
Procedure, shortened: as §1

[6] = target: Gal(b1-3)[Fuc(a1-4)]GlcNAc(b1-2)Man(a1-3)[Gal(b1-3)[Fuc(a1-4)]GlcNAc(b1-2)Man(a1-6)]Man(b1-4)GlcNAc(b1-4)[Fuc(a1-6)]GlcNAc
Procedure, shortened: as §1

[7] = target: Gal(b1-3)[Fuc(a1-4)]GlcNAc(b1-3)Gal(b1-3)[Fuc(a1-4)]GlcNAc
Procedure, shortened: as §1

[8] = target: Gal(b1-3)[Fuc(a1-4)]GlcNAc(b1-3)Gal(b1-4)[Fuc(a1-3)]GlcNAc
Procedure, shortened: as §1

[9] = target: Gal(b1-3)[Fuc(a1-4)]GlcNAc(b1-6)GalNAc
Procedure, shortened: as §1

[10] = target: Gal(b1-3)[GlcNAc(b1-6)]GalNAc
Procedure, shortened: as §1

[11] = target: Gal(b1-3)[Neu5Ac(a2-6)]GalNAc
Procedure, shortened: as §1

[12] = target: Gal(b1-3)[Neu5Ac(a2-6)]GlcNAc(b1-4)Gal(b1-4)Glc
Procedure, shortened: as §1

[13] = target: Gal(b1-3)[Neu5Ac(b2-6)]GalNAc
Procedure, shortened: as §1

[14] = target: Gal(b1-4)Gal
Procedure, shortened: as §1

[15] = target: Gal(b1-4)GalNAc(a1-3)[Fuc(a1-2)]Gal(b1-4)GlcNAc
Procedure, shortened: as §1

[16] = target: Gal(b1-4)GalNAc(b1-3)[Fuc(a1-2)]Gal(b1-4)GlcNAc
Procedure, shortened: as §1

[17] = target: Gal(b1-4)Glc
Procedure, shortened: as §1

[18] = target: Gal(b1-4)Glc6S
Procedure, shortened: as §1

[19] = target: Gal(b1-4)GlcNAc
Procedure, shortened: as §1

[20] = target: Gal(b1-4)GlcNAc(a1-6)Gal(b1-4)GlcNAc
Procedure, shortened: as §1

[21] = target: Gal(b1-4)GlcNAc(b1-2)Man
Procedure, shortened: as §1

[22] = target: Gal(b1-4)GlcNAc(b1-2)Man(a1-3)Man(b1-4)GlcNAc(b1-4)GlcNAc
Procedure, shortened: as §1

[23] = target: Gal(b1-4)GlcNAc(b1-2)Man(a1-3)[Gal(b1-4)GlcNAc(b1-2)Man(a1-6)]Man(b1-4)GlcNAc(b1-4)GlcNAc
Procedure, shortened: as §1

[24] = target: Gal(b1-4)GlcNAc(b1-2)Man(a1-3)[Gal(b1-4)GlcNAc(b1-2)Man(a1-6)]Man(b1-4)GlcNAc(b1-4)[Fuc(a1-6)]GlcNAc
Procedure, shortened: as §1

[25] = target: Gal(b1-4)GlcNAc(b1-2)Man(a1-3)[Gal(b1-4)GlcNAc(b1-2)Man(a1-6)][Gal(b1-4)GlcNAc(b1-4)]Man(b1-4)GlcNAc(b1-4)[Fuc(a1-6)]GlcNAc
Procedure, shortened: as §1

[26] = target: Gal(b1-4)GlcNAc(b1-2)Man(a1-3)[Gal(b1-4)GlcNAc(b1-2)Man(a1-6)][GlcNAc(b1-4)]Man(b1-4)GlcNAc(b1-4)[Fuc(a1-6)]GlcNAc
Procedure, shortened: as §1

[27] = target: Gal(b1-4)GlcNAc(b1-2)Man(a1-3)[GlcNAc(b1-2)Man(a1-6)]Man(b1-4)GlcNAc(b1-4)GlcNAc
Procedure, shortened: as §1

[28] = target: Gal(b1-4)GlcNAc(b1-2)Man(a1-3)[GlcNAc(b1-4)][Gal(b1-4)GlcNAc(b1-2)Man(a1-6)]Man(b1-4)GlcNAc(b1-4)GlcNAc
Procedure, shortened: as §1

[29] = target: Gal(b1-4)GlcNAc(b1-2)Man(a1-3)[Man(a1-6)]Man(b1-4)GlcNAc(b1-4)GlcNAc
Procedure, shortened: as §1

[30] = target: Gal(b1-4)GlcNAc(b1-2)Man(a1-6)Man(b1-4)GlcNAc(b1-4)GlcNAc
Procedure, shortened: as §1

[31] = target: Gal(b1-4)GlcNAc(b1-2)Man(a1-6)[GlcNAc(b1-2)Man(a1-3)]Man(b1-4)GlcNAc(b1-4)GlcNAc
Procedure, shortened: as §1

[32] = target: Gal(b1-4)GlcNAc(b1-2)Man(a1-6)[Man(a1-3)]Man(b1-4)GlcNAc(b1-4)GlcNAc
Procedure, shortened: as §1

[33] = target: Gal(b1-4)GlcNAc(b1-2)[Gal(b1-4)GlcNAc(b1-4)]Man(a1-3)[Gal(b1-4)GlcNAc(b1-2)Man(a1-6)]Man(b1-4)GlcNAc(b1-4)GlcNAc
Procedure, shortened: as §1

[34] = target: Gal(b1-4)GlcNAc(b1-2)[Gal(b1-4)GlcNAc(b1-4)]Man(a1-3)[Gal(b1-4)GlcNAc(b1-2)[Gal(b1-4)GlcNAc(b1-6)]Man(a1-6)]Man(b1-4)GlcNAc(b1-4)GlcNAc
Procedure, shortened: as §1

[35] = target: Gal(b1-4)GlcNAc(b1-2)[Gal(b1-4)GlcNAc(b1-4)]Man(a1-3)[GlcNAc(b1-4)][Gal(b1-4)GlcNAc(b1-2)Man(a1-6)]Man(b1-4)GlcNAc(b1-4)GlcNAc
Procedure, shortened: as §1

[36] = target: Gal(b1-4)GlcNAc(b1-2)[Gal(b1-4)GlcNAc(b1-4)]Man(a1-3)[GlcNAc(b1-4)][Gal(b1-4)GlcNAc(b1-2)[Gal(b1-4)GlcNAc(b1-6)]Man(a1-6)]Man(b1-4)GlcNAc(b1-4)GlcNAc
Procedure, shortened: as §1

[37] = target: Gal(b1-4)GlcNAc(b1-2)[Gal(b1-4)GlcNAc(b1-6)]Man(a1-6)[Gal(b1-4)GlcNAc(b1-2)Man(a1-3)]Man(b1-4)GlcNAc(b1-4)GlcNAc
Procedure, shortened: as §1

[38] = target: Gal(b1-4)GlcNAc(b1-2)[Gal(b1-4)GlcNAc(b1-6)]Man(a1-6)[Gal(b1-4)GlcNAc(b1-2)Man(a1-3)]Man(b1-4)GlcNAc(b1-4)[Fuc(a1-6)]GlcNAc
Procedure, shortened: as §1

[39] = target: Gal(b1-4)GlcNAc(b1-2)[Gal(b1-4)GlcNAc(b1-6)]Man(a1-6)[GlcNAc(b1-4)][Gal(b1-4)GlcNAc(b1-2)Man(a1-3)]Man(b1-4)GlcNAc(b1-4)GlcNAc
Procedure, shortened: as §1

[40] = target: Gal(b1-4)GlcNAc(b1-2)[Gal(b1-4)GlcNAc(b1-6)]Man(a1-6)[GlcNAc(b1-4)][Gal(b1-4)GlcNAc(b1-2)[Gal(b1-4)GlcNAc(b1-4)]Man(a1-3)]Man(b1-4)GlcNAc(b1-4)[Fuc(a1-6)]GlcNAc
Procedure, shortened: as §1

[41] = target: Gal(b1-4)GlcNAc(b1-3)Gal(b1-3)GalNAc
Procedure, shortened: as §1

[42] = target: Gal(b1-4)GlcNAc(b1-3)Gal(b1-3)GlcNAc
Procedure, shortened: as §1

[43] = target: Gal(b1-4)GlcNAc(b1-3)Gal(b1-4)Glc
Procedure, shortened: as §1

[44] = target: Gal(b1-4)GlcNAc(b1-3)Gal(b1-4)GlcNAc
Procedure, shortened: as §1

[45] = target: Gal(b1-4)GlcNAc(b1-3)Gal(b1-4)GlcNAc(b1-2)Man(a1-3)[Gal(b1-4)GlcNAc(b1-3)Gal(b1-4)GlcNAc(b1-2)Man(a1-6)]Man(b1-4)GlcNAc(b1-4)GlcNAc
Procedure, shortened: as §1

B1: LysMD3 (Homo sapiens), Q7Z3D4 (protein)
chain: MAGRHQNRSFPLPGVQSSGQVHAFGNCSDSDILEEDAEVYELRSRGKEKVRRSTSRDRLDDIIVLTKDIQEGDTLNAIALQYCCTVADIKRVNNLISDQDFFALRSIKIPVKKFSSLTETLCPPKGRQTSRHSSVQYSSEQQEILPANDSLAYSDSAGSFLKEVDRDIEQIVKCTDNKRENLNEVVSALTAQQMRFEPDNKNTQRKDPYYGADWGIG
glycan array binding signal (z-score) [1]: -0.673
glycan array binding signal (z-score) [2]: 0.213
glycan array binding signal (z-score) [3]: -0.786
glycan array binding signal (z-score) [4]: 1.22
glycan array binding signal (z-score) [5]: -0.333
glycan array binding signal (z-score) [6]: -0.295
glycan array binding signal (z-score) [7]: -0.551
glycan array binding signal (z-score) [8]: 0.366
glycan array binding signal (z-score) [9]: -0.262
glycan array binding signal (z-score) [10]: 0.565
glycan array binding signal (z-score) [11]: 0.105
glycan array binding signal (z-score) [12]: -0.417
glycan array binding signal (z-score) [13]: 0.205
glycan array binding signal (z-score) [14]: -0.109
glycan array binding signal (z-score) [15]: 1.11
glycan array binding signal (z-score) [16]: -0.217
glycan array binding signal (z-score) [17]: -0.555
glycan array binding signal (z-score) [18]: -0.057
glycan array binding signal (z-score) [19]: 0.257
glycan array binding signal (z-score) [20]: 0.599
glycan array binding signal (z-score) [21]: -0.361
glycan array binding signal (z-score) [22]: 0.363
glycan array binding signal (z-score) [23]: -0.64
glycan array binding signal (z-score) [24]: 0.035
glycan array binding signal (z-score) [25]: -0.656
glycan array binding signal (z-score) [26]: 0.435
glycan array binding signal (z-score) [27]: -1.1
glycan array binding signal (z-score) [28]: 0.056
glycan array binding signal (z-score) [29]: -0.625
glycan array binding signal (z-score) [30]: -0.751
glycan array binding signal (z-score) [31]: -1.08
glycan array binding signal (z-score) [32]: -1.01
glycan array binding signal (z-score) [33]: -0.371
glycan array binding signal (z-score) [34]: -1.49
glycan array binding signal (z-score) [35]: 0.234
glycan array binding signal (z-score) [36]: -0.147
glycan array binding signal (z-score) [37]: -1.06
glycan array binding signal (z-score) [38]: 0.202
glycan array binding signal (z-score) [39]: -1.27
glycan array binding signal (z-score) [40]: -0.334
glycan array binding signal (z-score) [41]: -1.05
glycan array binding signal (z-score) [42]: -0.535
glycan array binding signal (z-score) [43]: 0.367
glycan array binding signal (z-score) [44]: 0.194
glycan array binding signal (z-score) [45]: 1.39

Source: the supplement of paper PMC8728848
